Biological target: Sm.5HTRL (Schistosoma mansoni, UniProt A0A173FEI8)

Chains of the proteins cited; added tags and fusions are not shown. Residues count along the entry.
UniProt A0A173FEI8, 1-547: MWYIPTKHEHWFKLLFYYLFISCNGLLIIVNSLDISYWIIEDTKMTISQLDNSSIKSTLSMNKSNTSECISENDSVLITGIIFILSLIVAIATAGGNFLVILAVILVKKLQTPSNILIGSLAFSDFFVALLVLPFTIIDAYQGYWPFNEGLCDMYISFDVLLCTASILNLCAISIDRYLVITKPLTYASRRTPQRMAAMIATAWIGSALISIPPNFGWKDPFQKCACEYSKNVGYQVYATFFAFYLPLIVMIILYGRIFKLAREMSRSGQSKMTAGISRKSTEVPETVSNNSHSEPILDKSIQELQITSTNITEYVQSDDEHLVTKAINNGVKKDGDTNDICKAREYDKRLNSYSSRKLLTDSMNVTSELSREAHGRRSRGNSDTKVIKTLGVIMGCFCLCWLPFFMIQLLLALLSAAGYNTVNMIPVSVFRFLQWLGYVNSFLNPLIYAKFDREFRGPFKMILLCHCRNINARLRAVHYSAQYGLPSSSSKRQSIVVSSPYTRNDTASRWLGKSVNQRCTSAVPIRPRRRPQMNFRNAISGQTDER

In the case of `CCN(CC)C(=O)N[C@H]1C=C2c3cccc4[nH]cc(c34)C[C@H]2N(C)C1` [lisuride, Lisuride, reference compound], the “type of activity at schistosome 5-HTRs” value is reported as “partial agonists”.

From article PMC6095690, “Coalescing beneficial host and deleterious antiparasitic actions as an antischistosomal strategy” (eLife, 2018)
